This passage reports odor value results from patent EP1184030A1, “Antibacterial composition comprising trimethylnorbornanylcyclohexanol derivatives” (Givaudan SA, priority 2000, dated 2002).

This series is described as follows: Odor value (vapour pressure divided by olfactive threshold). Particulars: vapour pressure (ng/L) divided by olfactive threshold value (ng/L).

`C=CCc1ccc(O)c(OC)c1` [Eugenol]: the odor value is recorded as 346904.
